The source gives many values for each of these; only a part stands here.
Columns and labels:
Type in all cases: functional
Candida parapsilosis [1] = assay: Increase in PUT1 gene expression in Candida parapsilosis CLIB214 at 50 uM after 2 hrs by microarray based transcriptional profiling relative to control
Candida parapsilosis [2] = assay: Increase in CGD gene ortholog accession number orf19.1317 expression in Candida parapsilosis CLIB214 at 50 uM after 2 hrs by microarray based transcriptional profiling relative to control
Candida parapsilosis [3] = assay: Increase in CGD gene ortholog accession number orf19.2115 expression in Candida parapsilosis CLIB214 at 50 uM after 2 hrs by microarray based transcriptional profiling relative to control
Candida parapsilosis [4] = assay: Increase in SPL1 gene expression in Candida parapsilosis CLIB214 at 50 uM after 2 hrs by microarray based transcriptional profiling relative to control
Candida parapsilosis [5] = assay: Increase in HOG1 gene expression in Candida parapsilosis CLIB214 at 50 uM after 2 hrs by microarray based transcriptional profiling relative to control
Candida parapsilosis [6] = assay: Increase in CGD gene ortholog accession number orf19.6843 expression in Candida parapsilosis CLIB214 at 50 uM after 2 hrs by microarray based transcriptional profiling relative to control
Candida parapsilosis [7] = assay: Increase in CGD gene ortholog accession number orf19.2208 expression in Candida parapsilosis CLIB214 at 50 uM after 2 hrs by microarray based transcriptional profiling relative to control
Candida parapsilosis [8] = assay: Increase in MVD gene expression in Candida parapsilosis CLIB214 at 50 uM after 2 hrs by microarray based transcriptional profiling relative to control
Candida parapsilosis [9] = assay: Increase in CHT1 gene expression in Candida parapsilosis CLIB214 at 50 uM after 2 hrs by microarray based transcriptional profiling relative to control
Candida parapsilosis [10] = assay: Decrease in ERG9 gene expression in Candida parapsilosis CLIB214 at 50 uM after 2 hrs by microarray based transcriptional profiling relative to control
Candida parapsilosis [11] = assay: Increase in DBP8 gene expression in Candida parapsilosis CLIB214 at 50 uM after 2 hrs by microarray based transcriptional profiling relative to control
Candida parapsilosis [12] = assay: Increase in CGD gene ortholog accession number orf19.4980 expression in Candida parapsilosis CLIB214 at 50 uM after 2 hrs by microarray based transcriptional profiling relative to control
Candida parapsilosis [13] = assay: Decrease in CGD gene ortholog accession number orf19.6173 expression in Candida parapsilosis CLIB214 at 50 uM after 2 hrs by microarray based transcriptional profiling relative to control
Candida parapsilosis [14] = assay: Decrease in PFK1 gene expression in Candida parapsilosis CLIB214 at 50 uM after 2 hrs by microarray based transcriptional profiling relative to control
Candida parapsilosis [15] = assay: Decrease in CGD gene ortholog accession number orf19.1362 expression in Candida parapsilosis CLIB214 at 50 uM after 2 hrs by microarray based transcriptional profiling relative to control
Candida parapsilosis [16] = assay: Decrease in CGD gene ortholog accession number orf19.1634 expression in Candida parapsilosis CLIB214 at 50 uM after 2 hrs by microarray based transcriptional profiling relative to control
Candida parapsilosis [17] = assay: Decrease in CGD gene ortholog accession number orf19.5074 expression in Candida parapsilosis CLIB214 at 50 uM after 2 hrs by microarray based transcriptional profiling relative to control
Candida parapsilosis [18] = assay: Decrease in CGD gene ortholog accession number orf19.6476 expression in Candida parapsilosis CLIB214 at 50 uM after 2 hrs by microarray based transcriptional profiling relative to control
Candida parapsilosis [19] = assay: Increase in ASC1 gene expression in Candida parapsilosis CLIB214 at 50 uM after 2 hrs by microarray based transcriptional profiling relative to control
Candida parapsilosis [20] = assay: Increase in GenBank accession number NP_943639.1 expression in Candida parapsilosis CLIB214 at 50 uM after 2 hrs by microarray based transcriptional profiling relative to control
Candida parapsilosis [21] = assay: Decrease in CGD gene ortholog accession number orf19.1050 expression in Candida parapsilosis CLIB214 at 50 uM after 2 hrs by microarray based transcriptional profiling relative to control

CC(C)=CCC/C(C)=C/CC/C(C)=C/CO [FARNESOL]
fold change (FC) (Candida parapsilosis [1]): 2.16 | fold change (FC) (Candida parapsilosis [2]): 2.11 | fold change (FC) (Candida parapsilosis [3]): 2.04 | fold change (FC) (Candida parapsilosis [4]): 1.76 | fold change (FC) (Candida parapsilosis [5]): 1.56 | fold change (FC) (Candida parapsilosis [6]): 1.56 | fold change (FC) (Candida parapsilosis [7]): 1.51 | fold change (FC) (Candida parapsilosis [8]): 1.91 | fold change (FC) (Candida parapsilosis [9]): 1.55 | fold change (FC) (Candida parapsilosis [10]): 1.58 | fold change (FC) (Candida parapsilosis [11]): 1.82 | fold change (FC) (Candida parapsilosis [12]): 4.61 | fold change (FC) (Candida parapsilosis [13]): 3.98 | fold change (FC) (Candida parapsilosis [14]): 1.75 | fold change (FC) (Candida parapsilosis [15]): 1.78 | fold change (FC) (Candida parapsilosis [16]): 1.78 | fold change (FC) (Candida parapsilosis [17]): 1.79 | fold change (FC) (Candida parapsilosis [18]): 1.81 | fold change (FC) (Candida parapsilosis [19]): 2.63 | fold change (FC) (Candida parapsilosis [20]): 2.63 | fold change (FC) (Candida parapsilosis [21]): 1.84

From ChEMBL document CHEMBL1157379, “Transcriptional response of Candida parapsilosis following exposure to farnesol” (2007)
